The nature of this series: peptide synthesis. As to conditions: coupling step.
The substance Boc-D-Phe-ACHC-D-Phe-ACHC—OBn displayed a step yield of 72% yield.
The same measure for Boc-Lys(2-Cl-Z)-ACHC-Val-ACHC-OBn: 90%; for Boc-ACHC-D-Lys(2-Cl—Z)-D-Val-ACHC—OBn: 75% yield; for Boc-Lys(2-Cl-Z)-Val-Phe-ACHC-OBn: 60%.
The same measure for Boc-Ala-ACHC-Ala-ACHC-OBn: 75%; for Boc-D-Lys(2-C1-Z)-ACHC-D-Val-ACHC—OBn: 90% yield.
Under Boc-D-(Lys2-Cl—Z)-D-Val-D-Phe-ACHC—OBn stands 60% yield; under Boc-D-Val-ACHC-D-Val-ACHC-Olin, 80%; under Boc-ACHC-Lys(2-Cl-Z)-Val-ACHC-OBn, 75%.
Boc-Val-ACHC-Val-ACHC-Val-OBn: the step yield is reported as 80%.
With Boc-D-Ala-ACHC-D-Ala-ACHC—OBn, the step yield is reported as 75% yield.
Under Boc-Phe-ACHC-Phe-ACHC-OBn stands 72%.

The values are drawn from patent publication US10322998B2 (WISCONSIN ALUMNI RESEARCH FOUNDATION, priority 2002, dated 2019).
